Measured values: article PMC10269811

Legend:
[1] = target: HrpP_(1–119) fused to the N-terminal fragment of GFP (P. syringae pv. tomato DC3000); assay: split reporter; BiFC: HrpP or truncated HrpP fused to the N-terminal fragment of GFP, MKK2 to the C-terminal fragment; coexpressed in N. benthamiana leaves by Agrobacterium infiltration; confocal microscopy at 2 dpi
[2] = target: HrpP-GFP^N (P. syringae pv. tomato DC3000); assay: as above
[3] = target: HrpP_(1–101) fused to the N-terminal fragment of GFP (P. syringae pv. tomato DC3000); assay: as above
[4] = target: HrpP of P. syringae pv. tomato DC3000, two-hybrid bait in pGBKT7 (P. syringae pv. tomato DC3000) (UniProt G3XDD5); assay: two-hybrid; hrpP in pGBKT7 as bait, candidate genes in pGADT7 as prey; yeast strain Gold; tested on SD/-His/-Leu/-Trp/-Ade or SD/-His/-Leu/X-α-Gal plates

Binder	binding [1]	binding [2]	binding [3]	binding [4]
MKK2-GFP^C (protein, UniProt Q9S7U9 1-363) MKKGGFSNNLKLAIPVAGEQSITKFLTQSGTFKDGDLRVNKDGVRIISQLEPEVLSPIKPADDQLSLSDLDMVKVIGKGSSGVVQLVQHKWTGQFFALKVIQLNIDEAIRKAIAQELKINQSSQCPNLVTSYQSFYDNGAISLILEYMDGGSLADFLKSVKAIPDSYLSAIFRQVLQGLIYLHHDRHIIHRDLKPSNLLINHRGEVKITDFGVSTVMTNTAGLANTFVGTYNYMSPERIVGNKYGNKSDIWSLGLVVLECATGKFPYAPPNQEETWTSVFELMEAIVDQPPPALPSGNFSPELSSFISTCLQKDPNSRSSAKELMEHPFLNKYDYSGINLASYFTDAGSPLATLGNLSGTFSV	binds	binds	no binding	–
LORE, two-hybrid prey in pGADT7 (receptor, UniProt O64782 1-805) MGMVLFACLLLLIIFPTCGYAAINTSSPLSIRQTLSSPGGFYELGFFSPNNTQNQYVGIWFKKIVPRVVVWVANRDTPVTSSAANLTISSNGSLILLDGKQDVIWSTGKAFTSNKCHAELLDTGNFVVIDDVSGNKLWQSFEHLGNTMLPQSSLMYDTSNGKKRVLTTWKSNSDPSPGEFSLEITPQIPTQGLIRRGSVPYWRCGPWAKTRFSGISGIDASYVSPFSVVQDTAAGTGSFSYSTLRNYNLSYVTLTPEGKMKILWDDGNNWKLHLSLPENPCDLYGRCGPYGLCVRSDPPKCECLKGFVPKSDEEWGKGNWTSGCVRRTKLSCQAKSSMKTQGKDTDIFYRMTDVKTPDLHQFASFLNAEQCYQGCLGNCSCTAFAYISGIGCLVWNGELADTVQFLSSGEFLFIRLASSELAGSSRRKIIVGTTVSLSIFLILVFAAIMLWRYRAKQNDAWKNGFERQDVSGVNFFEMHTIRTATNNFSPSNKLGQGGFGPVYKGKLVDGKEIGVKRLASSSGQGTEEFMNEITLISKLQHRNLVRLLGYCIDGEEKLLIYEFMVNKSLDIFIFDPCLKFELDWPKRFNIIQGIARGLLYLHRDSRLRVIHRDLKVSNILLDDRMNPKISDFGLARMFQGTQYQDNTRRVVGTLGYMSPEYAWAGLFSEKSDIYSFGVLMLEIISGKRISRFIYGDESKGLLAYTWDSWCETGGSNLLDRDLTDTCQAFEVARCVQIGLLCVQHEAVDRPNTLQVLSMLTSATDLPVPKQPIFAVHTLNDMPMLQANSQDFLSVNEMTESMIQGR	–	–	–	no binding
PBL1, two-hybrid prey in pGADT7 (enzyme, UniProt Q8H186 1-389) MGSCLSSRVLNKSSSGLDDLHLSSCKSSSSATAHKTEGEILSSTTVKSFSFNELKLATRNFRSDSVVGEGGFGCVFRGWLDETTLTPTKSSSGLVIAVKRLNPDGFQGHREWLTEINYLGQLSHPNLVKLIGYCLEDEQRLLVYEFMHKGSLENHLFANGNKDFKPLSWILRIKVALDAAKGLAFLHSDPVKVIYRDIKASNILLDSDFNAKLSDFGLARDGPMGEQSYVSTRVMGTFGYAAPEYVSTGHLNARSDVYSFGVVLLELLCGRQALDHNRPAKEQNLVDWARPYLTSRRKVLLIVDTRLNSQYKPEGAVRLASIAVQCLSFEPKSRPTMDQVVRALVQLQDSVVKPANVDPLKVKDTKKLVGLKTEDKYQRNGLNKKTVGL	–	–	–	no binding
PBL2, two-hybrid prey in pGADT7 (enzyme, UniProt O49839 1-426) MGNCLDSSAKVDNSNHSPHANSASSGSKVSSKTSRSTGPSGLSTTSYSTDSSFGPLPTLRTEGEILSSPNLKAFTFNELKNATKNFRQDNLLGEGGFGCVFKGWIDQTSLTASRPGSGIVVAVKQLKPEGFQGHKEWLTEVNYLGQLSHPNLVLLVGYCAEGENRLLVYEFMPKGSLENHLFRRGAQPLTWAIRMKVAVGAAKGLTFLHEAKSQVIYRDFKAANILLDADFNAKLSDFGLAKAGPTGDNTHVSTKVIGTHGYAAPEYVATGRLTAKSDVYSFGVVLLELISGRRAMDNSNGGNEYSLVDWATPYLGDKRKLFRIMDTKLGGQYPQKGAFTAANLALQCLNPDAKLRPKMSEVLVTLEQLESVAKPGTKHTQMESPRFHHSSVMQKSPVRYSHDRPLLHMTPGASPLPSYTQSPRVR	–	–	–	no binding
PBL27, two-hybrid prey in pGADT7 (enzyme, UniProt Q1PDV6 1-513) MSGCLPCFGSSAKDAASKDSVKKELSAKDGSVTQSHHISLDKSKSRRGPEQKKELTAPKEGPTAHIAAQTFTFRELAAATKNFRPECLLGEGGFGRVYKGRLETTGQIVAVKQLDRNGLQGNREFLVEVLMLSLLHHPNLVNLIGYCADGDQRLLVYEYMPLGSLEDHLHDLPPDKEPLDWSTRMTIAAGAAKGLEYLHDKANPPVIYRDLKSSNILLGDGYHPKLSDFGLAKLGPVGDKTHVSTRVMGTYGYCAPEYAMTGQLTLKSDVYSFGVVFLELITGRKAIDNARAPGEHNLVAWARPLFKDRRKFPKMADPSLQGRYPMRGLYQALAVAAMCLQEQAATRPLIGDVVTALTYLASQTFDPNAPSGQNSRSGSGPPFIRTRDDRRSLGDGSSLDSPAETRSRLGSPATHKNSPDYRRRDMVREVNAGSEGGSETGGGSGRKWGLSDLEGQESQRGSPASVGRSSRGTPRNRDLDRERAVAEAKVWGENWRERKRATNGPGSFDSTND	–	–	–	no binding

Results are given in words; binding and its absence hold for the method and conditions named. For some of these results: Binding seen in cells or lysates may run through a third protein. For some of these results: Binding calls can cover weak binding; strength is not graded here. For some of these results: Sequences can lack the tags named with a protein.
